Test results taken from publication PMC4529235.
These are yes or no findings as the source states them, for the method shown. Binding seen in cells or lysates may run through a third protein.

What was measured:
[1] = molecular target: tetrameric ASIC1a concatemeric fusion protein 4_(ASIC)FP (H8-(hA1a-N1Q7)3-hA1a) (human) (UniProt P78348); experiment: cross-linking; BMOE (0.5 or 2 mM) at the cell surface of Xenopus oocytes and CHO cells before lysis, cell-surface biotinylated fractions, SDS-PAGE under reducing conditions, anti-ASIC1a western blot; band intensities pooled over oocytes and CHO cells
[2] = molecular target: tetrameric ASIC1a concatemeric fusion protein 4_(ASIC)FP (H8-(hA1a-N1Q7)3-hA1a) (human) (UniProt P78348); experiment: cross-linking; oxidation with 0.3 mM NaTT (20 min, 4°C) of Ni-NTA affinity-purified fractions from Xenopus oocytes and CHO cells, on the beads; non-reducing SDS-PAGE, anti-ASIC1a western blot

tetrameric ASIC1a concatemeric fusion protein 4_(ASIC)FP (H8-(hA1a-N1Q7)3-hA1a) (from UniProt P78348-2 1-528; P78348-2 1-528; P78348-2 1-528; P78348-2 1-528)
binding [1]: no binding
binding [2]: no binding
